Binding screen against folded nucleic acids

Source: the ROBIN nucleic acid binder screens (doi:10.1002/anie.202211358).

Oligonucleotides screened, 5′ to 3′:
TPP: TPP riboswitch RNA three-way junction, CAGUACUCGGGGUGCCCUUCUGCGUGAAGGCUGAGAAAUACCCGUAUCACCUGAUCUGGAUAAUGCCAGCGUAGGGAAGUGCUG. About 160 hits among about 24,000 compounds.
SAM-II: SAM-II riboswitch RNA pseudoknot, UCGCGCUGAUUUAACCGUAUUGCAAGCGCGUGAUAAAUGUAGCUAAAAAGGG. About 200 hits among about 21,000 compounds.
PreQ1: PreQ1 riboswitch RNA pseudoknot, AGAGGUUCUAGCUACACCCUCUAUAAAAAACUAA. From B. subtilis. About 170 hits among about 24,000 compounds.

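Each compound is printed as two spots on a slide made to bind it covalently, so it has no test concentration; the read-out is fluorescence of the bound, labelled oligonucleotide. The data file lists only calls. An earlier report of the laboratory on the PreQ1, TPP and SAM-II riboswitches (doi:10.1038/s41467-019-09493-3) used 1 µM RNA for 2 h and required a mean Z-score above 3 (spot signal-to-noise against the whole library), a score well above that on a control array, and duplicate spots agreeing (coefficient of variation under 100); it then also set aside compounds that hit other targets, which this list keeps. The cut-offs behind this list may differ. The calls come from the array alone, and fixing a compound to the slide can hide its binding.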
Key: active = hit, inactive = tested without a hit.
Compounds were drawn at random from those tested, without regard to their results.
A target missing from an entry has no call listed here.

* COc1cccc(CNCc2ccccc2OC)c1 : TPP: inactive; SAM-II: inactive; PreQ1: inactive
* C[C@H]1C[C@@H]2[C@@H]([C@@H](O)C[C@@]3(C)[C@H]2CC[C@]3(O)C(=O)CO)[C@@]2(C)C=CC(=O)C=C12 : TPP: inactive; SAM-II: inactive; PreQ1: inactive
* CCOP(=O)(OCC)/C(C#N)=C/c1ccc([N+](=O)[O-])cc1 : TPP: inactive; SAM-II: inactive; PreQ1: inactive
* O=C(NN=C(c1ccccc1)C(O)c1ccccc1)c1cccc(Cl)c1 (stereo unspecified) : TPP: inactive; SAM-II: inactive; PreQ1: inactive
* CCCCNc1nc(Oc2ccc(=O)n(C)n2)nc(N(CC)CC)n1 : TPP: inactive; PreQ1: inactive
* Cn1c(=O)c2[nH]c(NCCCN3CCOCC3)nc2n(C)c1=O : TPP: inactive; SAM-II: inactive; PreQ1: inactive
* CCOC(CNCc1cc(C)c2[nH]c3ccccc3c2c1C)OCC : TPP: inactive; SAM-II: inactive; PreQ1: inactive
* O=C(CNCCCn1ccnc1)c1nc(Cn2c(C(F)F)nc3ccccc32)no1 : TPP: inactive; SAM-II: inactive; PreQ1: inactive
* Nc1ccc(-c2cc3ccccc3oc2=O)cc1 : TPP: inactive; SAM-II: inactive; PreQ1: inactive
* O=C(NCCCO)c1nnc(Cc2ccc(F)cc2Cl)o1 : TPP: inactive; SAM-II: inactive; PreQ1: inactive
* Cc1ccc2nc(-c3ccccn3)c(Nc3ccc(F)cc3)n2c1 : TPP: inactive; SAM-II: inactive; PreQ1: inactive
* Cc1cc(C)cc(OCc2nnc(N)s2)c1 : TPP: inactive; SAM-II: inactive; PreQ1: inactive
* COCc1nn2c(N)c(C#N)nnc2c1-c1ccc(OC)cc1 : TPP: inactive; PreQ1: inactive
* COc1ccc(C)cc1NC1=NS(=O)(=O)C(c2ccc(C(C)C)cc2)=C1C : TPP: inactive; PreQ1: inactive

2 of the entries, repeated:

Compound	TPP	SAM-II	PreQ1
COc1cccc(CNCc2ccccc2OC)c1	inactive	inactive	inactive
Cc1cc(C)cc(OCc2nnc(N)s2)c1	inactive	inactive	inactive